Results are given in words; binding and its absence hold for the method and conditions named. Some results given as binding are weak or reduced against the parent protein; the word gives no strength.
B1: SEQ ID NO 3 (VHH)
VHH: QVQVAESGGGLVQSGGSMNLSCTASGNLFSVDAMGWFRQAPGEEREAVAAIMWSGDSTYYANAVKGRFTISRDNAKNTVYLQMNSLKPEDTAVYYCAARLQEEGWWDYWGQGTQVTVSS
B2: SEQ ID NO 4 (VHH)
VHH: QVRLVESGGGLVQPGGSLRLSCTASGGTFDRYNVAWFRQAPGEEREAVASIMWSGDNTYYANSVKGRFTISRDNAKNTVYLQMNSLKPEDTAVYYCAARIQEQGWWDYWGQGTQVTVSS
B3: SEQ ID NO 5 (VHH)
VHH: QVQLVESGGGLAQAGGSLRLSCAASGRTASGYAMGWFRQAPGKEREAVAAIMWSGGSTYYADSVKGRFTISRDNAKNTVYLQMNSLKTEDTAVYYCAARTDGSGWWDYWGQGTQVTVSS
B4: SEQ ID NO 6 (VHH)
VHH: QVQVVESGGGLVQPGGSLRLSCAASGRTVSSHAMGWFRQAPGEEREAVAAIMWSGDSTYYANAVKGRFTISRDNAKNTVYLQMNSLKPEDTAVYYCAARLQEEGWWDYWGQGTQVTVSS
B5: SEQ ID NO 7 (VHH)
VHH: QVQLVESGGGLVQAGGSLRLSCVASGRTFSSYDMGWFRQAPGEEREAVAAINWSGGSTYYADSVKGRFTISSDNAKNTVYLQMNNLKPEDTAVYYCAARQVPGWWDYWGQGTQVTVSS

By UniProt entry, the sequences of proteins in these tests, tags left out. Where a name states a change or a piece, a line headed by the entry shows the natural chain unless it says otherwise.
UniProt P01225: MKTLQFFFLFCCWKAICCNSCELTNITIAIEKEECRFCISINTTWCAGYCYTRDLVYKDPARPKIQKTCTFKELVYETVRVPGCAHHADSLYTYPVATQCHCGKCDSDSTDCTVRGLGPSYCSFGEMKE

What follows are binders tested against 促卵泡激素(FSH) (human) (UniProt P01225) (assay: ELISA with purified His-tagged VHH (FSH coating not described)).

binding, binds:
B1, B2, B3, B4, B5
